Results deposited as PubChem BioAssay AID743121 (NCATS, 2013)
Screen: 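Genes whose silencing strengthens cell killing by camptothecin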 (primary screen). Cell system: MDA-MB-231 cells, a human breast cancer line. Knock-down reagent: single siRNA against human genes, 20 nM siRNA (0.8 pmol per well). Duration: 120 h (drug added 48 h after transfection, read 72 h later). Conditions: camptothecin 20 nM (about EC30) for 72 h; vehicle 0.1% DMSO in parallel plates. Read-out: 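Cell viability by ATP luminescence (CellTiter-Glo) as % of non-targeting siRNA wells, and the log2 ratio of viability without drug over viability with camptothecin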. Scale: log2 vehicle/camptothecin viability: higher = stronger sensitisation to camptothecin; viability with camptothecin: higher = more viable cells. Units: viability with camptothecin in % of control. Active means: 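Each gene scored by redundant siRNA activity (RSA) over its individual siRNA ratios; a gene is called active at p < 0.001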.
In all, the deposit lists about 26,000 reagents; below is a part drawn at random. In the full data, 167 (0.63%) were called active. 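Calls are per gene from RSA p-values that are not deposited; an individual active-marked siRNA can sensitise only weakly.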 The numbers tell different reagents against one gene apart. Further read-outs or replicates are left out here.

RIPK2 (GeneID 8767) #1 showed log2 vehicle/camptothecin viability -0.0932; viability with camptothecin 90.6; inactive.
Depletion of RIPK2 (GeneID 8767) #2 gave: log2 vehicle/camptothecin viability 0.284; viability with camptothecin 42.3; inactive.
Knock-down of RIPK2 (GeneID 8767) #3 gave: log2 vehicle/camptothecin viability 0.105; viability with camptothecin 92.1; inactive.
With knock-down of RIPK2 (GeneID 8767) #4, the record shows log2 vehicle/camptothecin viability -0.0202; viability with camptothecin 59.8; inactive.
LHB (GeneID 3972) #1 gave log2 vehicle/camptothecin viability -0.527; viability with camptothecin 90.1; inactive.
Silencing of LHB (GeneID 3972) #2 gave: log2 vehicle/camptothecin viability -0.186; viability with camptothecin 75.7; inactive.
With knock-down of CENPH (GeneID 64946) #1, the screen gave log2 vehicle/camptothecin viability 0.181; viability with camptothecin 85.4; inactive.
For CENPH (GeneID 64946) #2, the entry reads log2 vehicle/camptothecin viability -0.164; viability with camptothecin 88.2; inactive.
After knock-down of CENPH (GeneID 64946) #3 the results were log2 vehicle/camptothecin viability -0.0975; viability with camptothecin 80.4; inactive.
With knock-down of CENPH (GeneID 64946) #4 the results were log2 vehicle/camptothecin viability -0.943; viability with camptothecin 88.9; inactive.
After knock-down of CDK11B (GeneID 984) #1, the screen gave log2 vehicle/camptothecin viability -0.724; viability with camptothecin 61.3; inactive.
Against CDK11B (GeneID 984) #2, the values are log2 vehicle/camptothecin viability -0.574; viability with camptothecin 40.3; inactive.
Depletion of CDK11B (GeneID 984) #3 resulted in: log2 vehicle/camptothecin viability -0.309; viability with camptothecin 24; inactive.
With knock-down of CDK11B (GeneID 984) #4 the results were log2 vehicle/camptothecin viability -0.616; viability with camptothecin 45.6; inactive.
Depletion of CDK11B (GeneID 984) #5 came out at: log2 vehicle/camptothecin viability -0.6; viability with camptothecin 61.8; inactive.
CDK11B (GeneID 984) #6 gave log2 vehicle/camptothecin viability -0.713; viability with camptothecin 66.2; inactive.
CDK11B (GeneID 984) #7 gave log2 vehicle/camptothecin viability -0.478; viability with camptothecin 17; inactive.
CDK11B (GeneID 984) #8 gave log2 vehicle/camptothecin viability -0.46; viability with camptothecin 47.2; inactive.
With knock-down of CDK11B (GeneID 984) #9 the results were log2 vehicle/camptothecin viability -0.481; viability with camptothecin 87.4; inactive.
With knock-down of CD69 (GeneID 969) #1, the record shows log2 vehicle/camptothecin viability 0.316; viability with camptothecin 47; inactive.
CD69 (GeneID 969) #2 gave log2 vehicle/camptothecin viability -0.187; viability with camptothecin 86.9; inactive.
CD69 (GeneID 969) #3 scored log2 vehicle/camptothecin viability -0.183; viability with camptothecin 91.1; inactive.
Against CD69 (GeneID 969) #4 the deposit lists log2 vehicle/camptothecin viability -0.21; viability with camptothecin 79.9; inactive.
Silencing of CYBA (GeneID 1535) #1 gave: log2 vehicle/camptothecin viability -0.368; viability with camptothecin 41.3; inactive.
After knock-down of CYBA (GeneID 1535) #2 the results were log2 vehicle/camptothecin viability -0.395; viability with camptothecin 73.4; inactive.
Depletion of CYBA (GeneID 1535) #3 resulted in: log2 vehicle/camptothecin viability -0.354; viability with camptothecin 65; inactive.
With knock-down of CYBA (GeneID 1535) #4 the results were log2 vehicle/camptothecin viability -0.434; viability with camptothecin 87.6; inactive.

2 successive reagents already listed, quoted:
CDK11B (GeneID 984) #2: log2 vehicle/camptothecin viability = -0.574; viability with camptothecin = 40.3; outcome = inactive
CDK11B (GeneID 984) #3: log2 vehicle/camptothecin viability = -0.309; viability with camptothecin = 24; outcome = inactive
